# According to publication doi:10.1101/2020.11.17.387951:
# Sequences of proteins named here, by UniProt entry; tags and fusion partners are left off.
# UniProt P12579, whole entry: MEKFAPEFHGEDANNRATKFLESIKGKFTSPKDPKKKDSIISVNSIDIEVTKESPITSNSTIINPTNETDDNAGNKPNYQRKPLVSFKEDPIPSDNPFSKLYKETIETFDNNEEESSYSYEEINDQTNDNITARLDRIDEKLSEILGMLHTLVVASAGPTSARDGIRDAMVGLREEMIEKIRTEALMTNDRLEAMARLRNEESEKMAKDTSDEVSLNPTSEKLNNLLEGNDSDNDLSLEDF
# Results are given in words; binding and its absence hold for the method and conditions named. For some assays here: Binding seen in cells or lysates may run through a third protein. For some assays here: Tags and fused reporters may be left off the sequences shown. Some entries that bind do so weakly or less than the wild type.
# T1: RSV A2 M2-1 protein fused to the NanoLUC 11S subunit (human respiratory syncytial virus, strain A2), P04545
# T1 chain: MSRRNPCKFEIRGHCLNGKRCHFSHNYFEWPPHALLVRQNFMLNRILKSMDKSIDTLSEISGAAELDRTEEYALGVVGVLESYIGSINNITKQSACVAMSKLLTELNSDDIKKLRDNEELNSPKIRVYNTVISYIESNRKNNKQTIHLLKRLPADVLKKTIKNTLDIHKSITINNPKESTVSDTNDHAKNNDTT
# B1: recombinant RSV Matrix protein, wild type (protein, UniProt P0DOE7 1-256)
# chain: METYVNKLHEGSTYTAAVQYNVLEKDDDPASLTIWVPMFQSSMPADLLIKELANVNILVKQISTPKGPSLRVMINSRSAVLAQMPSKFTICANVSLDERSKLAYDVTTPCEIKACSLTCLKSKNMLTTVKDLTMKTLNPTHDIIALCEFENIVTSKKVIIPTYLRSISVRNKDLNTLENITTTEFKNAITNAKIIPYSGLLLVITVTDNKGAFKYIKPQSQFIVDLGAYLEKESIYYVTTNWKHTATRFAIKPMED
# B2: RSV A2 Matrix protein fused to the NanoLUC 114 subunit, P0DOE7 1-256 (protein)
# chain: B1 chain
# Assays:
# [1] = target: recombinant RSV Phosphoprotein, full-length (human respiratory syncytial virus (strain not stated for the bacterial construct)) (UniProt P12579); assay: native gel or EMSA
# [2] = target: T1, RSV A2 M2-1 protein fused to the …; assay: split reporter; conditions: remark: other sources report otherwise
Binder,binding [1],binding [2]
B1,binds,–
B2,–,no binding
